These are yes or no findings as the source states them, for the method shown. Binding seen in cells or lysates may run through a third protein.
Biological target: BCL2L1/BCLXL (human (endogenous in SH-EP)) (UniProt Q07817)
Experiment: condition: only cells treated with 50 nM MG-2477 for 30 minutes; co-IP; endogenous BCLXL precipitated with 1 ug BCLXL antibody from lysate of SH-EP cells treated with 50 nM MG-2477 for 30 minutes; immunoblot

Chains of the proteins cited; added tags and fusions are not shown.
UniProt Q07817: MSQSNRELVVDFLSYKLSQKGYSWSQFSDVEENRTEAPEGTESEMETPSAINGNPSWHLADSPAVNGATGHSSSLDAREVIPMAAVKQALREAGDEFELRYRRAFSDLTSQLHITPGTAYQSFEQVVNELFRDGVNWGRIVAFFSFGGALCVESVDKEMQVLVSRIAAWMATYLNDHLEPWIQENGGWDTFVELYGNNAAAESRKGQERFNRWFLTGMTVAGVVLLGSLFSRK
UniProt Q14457: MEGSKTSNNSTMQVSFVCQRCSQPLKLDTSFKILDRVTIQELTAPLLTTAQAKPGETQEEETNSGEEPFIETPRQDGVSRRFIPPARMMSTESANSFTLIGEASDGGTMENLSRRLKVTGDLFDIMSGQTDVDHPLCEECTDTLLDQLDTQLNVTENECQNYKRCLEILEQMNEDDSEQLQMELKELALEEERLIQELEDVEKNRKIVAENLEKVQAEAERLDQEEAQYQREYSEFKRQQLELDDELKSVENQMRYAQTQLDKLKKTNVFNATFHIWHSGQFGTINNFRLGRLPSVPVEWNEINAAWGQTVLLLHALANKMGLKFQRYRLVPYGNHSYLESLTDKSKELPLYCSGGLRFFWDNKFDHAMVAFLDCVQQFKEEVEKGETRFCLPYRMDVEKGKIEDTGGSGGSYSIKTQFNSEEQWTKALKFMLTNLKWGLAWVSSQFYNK

- binding: no binding
Substance: BECN1/beclin1 (from UniProt Q14457 1-450)

— publication PMC5458265
